{
  "source": "patent US20240200090A1",
  "about": "(CAS CENTER FOR EXCELLENCE IN MOLECULAR PLANT SCIENCES, published 2024)",
  "binders": {"B1": {"name": "phosphate starvation response factor PHR2 (OsPHR2) (other)", "chain": "MERISTNQLYNSGIPVTVPSPLPAIPATLDENIPRIPDGQNVPRERELRSTPMPPHQNQSTVAPLHGHFQSSTGSVGPLRSSQAIRFSSVSSNEQYTNANPYNSQPPSSGSSSTLNYGSQYGGFEPSLTDFPRDAGPTWCPDPVDGLLGYTDDVPAGNNLTENSSIAAGDELAKQSEWWNDFMNYDWKDIDNTACTETQPQVGPAAQSSVAVHQSAAQQSVSSQSGEPSAVAIPSPSGASNTSNSKTRMRWTPELHERFVDAVNLLGGSEKATPKGVLKLMKADNLTIYHVKSHLQKYRTARYRPELSEGSSEKKAASKEDIPSIDLKGGNFDLTEALRLQLELQKRLHEQLEIQRSLQLRIEEQGKCLQMMLEQQCIPGTDKAVDASTSAEGTKPSSDLPESSAVKDVPENSQNGIAKQTGMRIH", "notes": "Transcription factor"}},
  "target": "T1, OsCCAMK (UniProt Q6AVM3 1-516, limits assumed)",
  "T1 construct": "Named only in the discussion; The yeast two-hybrid construct is not described",
  "T1 sequence (looked up)": "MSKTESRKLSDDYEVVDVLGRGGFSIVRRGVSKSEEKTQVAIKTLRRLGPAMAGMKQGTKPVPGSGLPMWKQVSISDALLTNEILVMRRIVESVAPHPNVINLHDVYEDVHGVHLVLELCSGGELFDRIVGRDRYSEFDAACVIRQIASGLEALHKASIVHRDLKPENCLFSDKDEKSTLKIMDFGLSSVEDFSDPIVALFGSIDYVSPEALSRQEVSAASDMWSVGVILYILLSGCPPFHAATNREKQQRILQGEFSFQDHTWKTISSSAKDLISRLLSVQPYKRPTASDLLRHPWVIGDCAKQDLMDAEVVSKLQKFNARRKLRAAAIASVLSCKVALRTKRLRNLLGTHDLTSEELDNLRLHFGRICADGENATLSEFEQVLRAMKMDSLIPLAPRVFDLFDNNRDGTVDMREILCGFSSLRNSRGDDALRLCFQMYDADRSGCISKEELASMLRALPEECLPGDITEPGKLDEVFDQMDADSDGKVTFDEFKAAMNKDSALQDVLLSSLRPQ",
  "assay": "yeast two-hybrid",
  "data": [
    {"binder": "B1", "values": [
      {"measurement": "binding result", "result": "no binding"}
    ]}
  ]
}
